PubChem BioAssay AID1259294 – Sanger Institute – 2017

- Test: 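Genes whose silencing strengthens the effect of BYL719, cetuximab or trametinib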 (follow-up of hits)
- Cells: human CL40 colorectal cancer cells
- Reagent: single siRNA against human genes
- Treatment: anchor drug or DMSO vehicle added to knock-down cells: BYL719 1 µM, cetuximab 5 µg/ml, trametinib 10 nM
- Read-out: 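Viability averaged across replicates, each scaled to control pool 2 (non-targeting), under vehicle or anchor drug; synergy score compares observed combined effect with expected effect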
- Scale: synergy score with trametinib and synergy score with BYL719 and synergy score with cetuximab: higher = stronger synergistic (synthetic lethal) killing
- Active means: 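a synergy score over 0.10 with BYL719, cetuximab or trametinib marks synergy with a drug; lacking such a score means no synergy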
- Calls: active = synergy with a drug; inactive = no synergy
In all, the deposit lists 160 reagents; below is a random part of them. 43 of them (27%) were called active. 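Calls mean synergy with any one drug, not lethality of knock-down alone; BYL719 1 µM, cetuximab 5 µg/ml, trametinib 10 nM barely cut viability.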 The numbers tell different reagents against one gene apart. Not all columns of the deposit are shown. No sequences are given here. Not stated in the record: the amount of reagent, the time to read-out.

Target gene | siRNA no. | synergy score with trametinib | synergy score with BYL719 | synergy score with cetuximab | Call
PLK1 | 1 | -0.0204 | -0.0373 | -0.101 | inactive
PLK1 | 2 | 0.0469 | -0.0592 | -0.0126 | inactive
PLK1 | 3 | 0.00204 | 0.0171 | -0.0373 | inactive
PLK1 | 4 | 0.00138 | -0.0635 | -0.0433 | inactive
PAK1 | 1 | 0.17 | 0.0655 | -0.106 | active
PAK1 | 2 | 0.0875 | 0.0318 | -0.019 | inactive
PAK1 | 3 | 0.163 | 0.105 | -0.345 | active
PAK1 | 4 | 0.0882 | -0.251 | 0.202 | active
PFKFB3 | 1 | -0.0748 | -0.142 | -0.166 | inactive
PFKFB3 | 2 | 0.12 | -0.058 | 0.0593 | active
PFKFB3 | 3 | -0.085 | -0.405 | -0.146 | inactive
PFKFB3 | 4 | 0.148 | -0.0717 | 0.0709 | active
PRAG1 | 1 | 0.0534 | 0.117 | 0.0452 | active
PRAG1 | 2 | 0.0111 | -0.0821 | 0.0798 | inactive
PRAG1 | 3 | -0.134 | -0.143 | 0.00991 | inactive
PRAG1 | 4 | -0.0306 | -0.155 | -0.118 | inactive
MPP3 | 1 | 0.029 | -0.377 | -0.195 | inactive
MPP3 | 2 | 0.0386 | -0.29 | -0.0439 | inactive
MPP3 | 3 | 0.25 | 0.195 | -0.271 | active
MPP3 | 4 | -0.0569 | -0.399 | -0.189 | inactive
MAPKAPK2 | 1 | 0.055 | 0.0278 | -0.0475 | inactive
MAPKAPK2 | 2 | -0.21 | -0.404 | -0.0677 | inactive
MAPKAPK2 | 3 | 0.00389 | -0.256 | -0.00254 | inactive
MAPKAPK2 | 4 | -0.0746 | -0.272 | -0.139 | inactive
AK2 | 1 | -0.0819 | -0.444 | -0.0849 | inactive
AK2 | 2 | 0.218 | -0.222 | -0.106 | active
AK2 | 3 | 0.0232 | -0.298 | -0.106 | inactive
AK2 | 4 | 0.169 | -0.194 | -0.218 | active
MARK3 | 1 | -0.00825 | -0.449 | -0.225 | inactive
MARK3 | 2 | 0.141 | 0.0982 | -0.106 | active
MARK3 | 3 | -0.0898 | -0.436 | -0.177 | inactive
MARK3 | 4 | 0.178 | -0.0499 | -0.188 | active
IKBKB | 1 | -0.178 | -0.0104 | -0.0114 | inactive
IKBKB | 2 | -0.0896 | -0.128 | -0.114 | inactive
IKBKB | 3 | -0.0884 | -0.13 | -0.00755 | inactive
IKBKB | 4 | -0.016 | -0.257 | -0.0795 | inactive
